# Data taken from patent US9999659B2, “Treatments using a peptide and/or vaccine” (AFFIRIS AG, priority 2012, dated 2018).
# Some entries share one result that the patent states for a list of compounds.
# Tested on: Balb/c mice
# Test: Total cholesterol assay in immunized mice
# Type: in vivo, mouse
# Details: second experiment, FIG. 6B; mice immunized with Sequence-KLH/Alum
# Experimental: The peptides were conjugated via the heterobifunctional linker GMBS (4-Maleimidobutyric acid N-hydroxysuccinimide ester) to KLH (Keyhole Limpet Hemocyanin).
# 5 Balb/c mice were subcutaneously immunized. Mice had access to food and water ad libitum and were kept under a 12 h light/dark cycle. The age of mice at the beginning of experiments was 8 to 10 weeks.
# Mice were injected four times in 2 week intervals with 15 μg of net peptide coupled to KLH and adsorbed to Alhydrogel as adjuvant in a volume of 1 ml in total.
# Blood was taken approximately 2 weeks after the final injection.
# Total cholesterol was measured with the LabAssay™ Cholesterol Kit (Wako).
# For this purpose mice have been immunized with HPLC purified peptides coupled to KLH and formulated with an adjuvant (Alum) as vaccines (Sequence-KLH/Alum). In the first experiment, a direct comparison between the original PCSK9 sequence and the novel sequence […] has been performed. Here, mice have been immunized with irrelevant peptide vaccine (irrelevant peptide-KLH/Alum) as a negative control group, original PCSK9 sequence vaccine ([…]-KLH/Alum) and the novel sequence vaccine ([…]-KLH/Alum). The latter group ([…]-KLH/Alum) has been used not only to compare its functionality of the induced antibodies to the functionality of the antibodies generated using the original PCSK9 sequence vaccine ([…]-KLH/Alum), but also as a bridging group between different experiments.
# Subsequently, a second experiment has been performed wherein mice have been immunized with irrelevant peptide as a negative control group and all the three novel sequences […], […] and […], all coupled to KLH and formulated as vaccines. As it has been already mentioned above, the mice immunized with the novel sequence ([…]-KLH/Alum) have been used as a bridging group between the experiments. […]
row,Substance,% decrease of TC compared to the irrelevant (negative) control group
1,"SVPWNLERIQ: vaccine containing novel sequence SVPWNLERIQ (SEQ ID No. 60), coupled to KLH and formulated as vaccine",up to 40%
2,SIPWSLERIT-KLH/Alum: novel sequence vaccine: peptide SIPWSLERIT (SEQ ID No. 21) coupled to KLH and formulated with adjuvant Alum,up to 40%
3,"VIPWNLERIL: vaccine containing novel sequence VIPWNLERIL (SEQ ID No. 55), coupled to KLH and formulated as vaccine",up to 40%
